According to publication doi:10.1101/2022.12.28.522133:
These are yes or no findings as the source states them, for the method shown. In cells and extracts the contact can be indirect. A yes stands for co-enrichment or nearness to the bait. Other partners may have been found.

The chains behind the UniProt entries cited, without tags or fusion partners.
UniProt P15924: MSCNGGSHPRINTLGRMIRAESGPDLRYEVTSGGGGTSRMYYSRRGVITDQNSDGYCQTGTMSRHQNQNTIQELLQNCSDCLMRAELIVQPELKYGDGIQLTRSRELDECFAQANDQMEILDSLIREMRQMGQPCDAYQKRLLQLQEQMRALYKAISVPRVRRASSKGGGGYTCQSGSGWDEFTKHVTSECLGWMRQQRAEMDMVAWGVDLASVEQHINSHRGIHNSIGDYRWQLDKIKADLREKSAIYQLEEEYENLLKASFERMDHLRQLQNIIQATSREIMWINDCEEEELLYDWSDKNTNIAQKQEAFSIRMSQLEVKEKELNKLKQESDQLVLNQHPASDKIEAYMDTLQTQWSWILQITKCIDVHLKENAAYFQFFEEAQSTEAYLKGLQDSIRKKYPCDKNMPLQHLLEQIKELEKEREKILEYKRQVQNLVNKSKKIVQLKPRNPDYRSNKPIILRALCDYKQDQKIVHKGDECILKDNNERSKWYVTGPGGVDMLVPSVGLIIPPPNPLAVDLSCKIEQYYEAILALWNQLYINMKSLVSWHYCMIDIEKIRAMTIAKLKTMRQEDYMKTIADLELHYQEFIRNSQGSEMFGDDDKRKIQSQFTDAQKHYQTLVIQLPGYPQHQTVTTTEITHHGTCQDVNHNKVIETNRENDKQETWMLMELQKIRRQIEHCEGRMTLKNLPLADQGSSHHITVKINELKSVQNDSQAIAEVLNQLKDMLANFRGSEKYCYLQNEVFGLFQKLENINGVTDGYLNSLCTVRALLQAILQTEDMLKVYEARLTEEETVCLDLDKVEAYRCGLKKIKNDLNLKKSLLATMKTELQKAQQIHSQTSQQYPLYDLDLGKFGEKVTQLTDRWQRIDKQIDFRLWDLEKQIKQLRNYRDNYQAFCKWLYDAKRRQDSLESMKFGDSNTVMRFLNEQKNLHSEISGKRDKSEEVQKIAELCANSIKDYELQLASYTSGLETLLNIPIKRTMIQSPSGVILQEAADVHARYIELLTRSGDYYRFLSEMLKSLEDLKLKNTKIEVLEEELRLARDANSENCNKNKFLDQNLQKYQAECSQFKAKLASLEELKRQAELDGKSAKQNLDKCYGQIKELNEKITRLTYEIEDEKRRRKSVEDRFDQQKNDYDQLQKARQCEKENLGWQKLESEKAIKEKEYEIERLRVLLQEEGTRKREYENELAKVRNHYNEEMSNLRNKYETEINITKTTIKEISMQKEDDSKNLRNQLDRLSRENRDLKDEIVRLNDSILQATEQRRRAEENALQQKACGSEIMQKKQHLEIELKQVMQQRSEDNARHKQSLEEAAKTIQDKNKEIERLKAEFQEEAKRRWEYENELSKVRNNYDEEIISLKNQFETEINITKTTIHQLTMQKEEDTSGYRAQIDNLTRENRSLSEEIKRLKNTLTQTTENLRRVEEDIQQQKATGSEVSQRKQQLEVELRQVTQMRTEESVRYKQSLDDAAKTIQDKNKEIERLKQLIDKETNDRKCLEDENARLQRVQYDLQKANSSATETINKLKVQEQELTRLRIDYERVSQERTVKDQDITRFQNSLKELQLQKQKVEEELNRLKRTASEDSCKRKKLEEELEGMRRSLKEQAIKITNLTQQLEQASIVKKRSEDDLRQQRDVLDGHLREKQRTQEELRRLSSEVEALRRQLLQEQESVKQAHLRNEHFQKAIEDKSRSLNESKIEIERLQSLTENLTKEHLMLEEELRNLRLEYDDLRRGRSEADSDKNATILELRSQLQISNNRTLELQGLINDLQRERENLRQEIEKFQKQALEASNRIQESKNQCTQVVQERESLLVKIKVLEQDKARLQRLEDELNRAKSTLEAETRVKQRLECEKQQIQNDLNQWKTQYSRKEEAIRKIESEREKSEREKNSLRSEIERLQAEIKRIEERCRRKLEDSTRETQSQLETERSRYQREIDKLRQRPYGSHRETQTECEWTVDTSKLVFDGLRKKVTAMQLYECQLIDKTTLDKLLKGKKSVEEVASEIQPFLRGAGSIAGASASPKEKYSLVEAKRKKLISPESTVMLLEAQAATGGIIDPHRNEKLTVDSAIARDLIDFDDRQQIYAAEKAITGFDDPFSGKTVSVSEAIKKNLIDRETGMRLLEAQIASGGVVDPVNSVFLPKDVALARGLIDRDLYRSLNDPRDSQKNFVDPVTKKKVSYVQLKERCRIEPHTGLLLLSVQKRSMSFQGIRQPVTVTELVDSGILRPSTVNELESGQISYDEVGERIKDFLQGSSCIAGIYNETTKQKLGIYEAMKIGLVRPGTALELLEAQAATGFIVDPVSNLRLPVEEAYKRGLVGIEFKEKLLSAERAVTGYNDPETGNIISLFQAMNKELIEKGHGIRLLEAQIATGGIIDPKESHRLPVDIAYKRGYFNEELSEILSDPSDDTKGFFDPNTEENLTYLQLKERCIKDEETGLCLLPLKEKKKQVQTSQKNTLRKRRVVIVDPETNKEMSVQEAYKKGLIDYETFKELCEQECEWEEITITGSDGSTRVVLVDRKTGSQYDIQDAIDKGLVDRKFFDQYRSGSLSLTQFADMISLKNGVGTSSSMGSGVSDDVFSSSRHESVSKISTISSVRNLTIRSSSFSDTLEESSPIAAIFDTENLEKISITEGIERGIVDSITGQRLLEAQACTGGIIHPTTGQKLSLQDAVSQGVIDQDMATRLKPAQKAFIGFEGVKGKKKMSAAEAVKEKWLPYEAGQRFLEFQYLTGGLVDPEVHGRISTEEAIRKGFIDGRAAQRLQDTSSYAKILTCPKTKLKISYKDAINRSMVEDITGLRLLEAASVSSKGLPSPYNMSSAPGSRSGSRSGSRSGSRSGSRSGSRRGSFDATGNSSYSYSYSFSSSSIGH

Target: desmoplakin (human (endogenous in HaCaT)) (UniProt P15924)
Assay: affinity purification with mass spectrometry

B1: SERPINB5 (protein, UniProt P36952 1-375)
chain: MDALQLANSAFAVDLFKQLCEKEPLGNVLFSPICLSTSLSLAQVGAKGDTANEIGQVLHFENVKDVPFGFQTVTSDVNKLSSFYSLKLIKRLYVDKSLNLSTEFISSTKRPYAKELETVDFKDKLEETKGQINNSIKDLTDGHFENILADNSVNDQTKILVVNAAYFVGKWMKKFSESETKECPFRVNKTDTKPVQMMNMEATFCMGNIDSINCKIIELPFQNKHLSMFILLPKDVEDESTGLEKIEKQLNSESLSQWTNPSTMANAKVKLSIPKFKVEKMIDPKACLENLGLKHIFSEDTSDFSGMSETKGVALSNVIHKVCLEITEDGGDSIEVPGARILQHKDELNADHPFIYIIRHNKTRNIIFFGKFCSP
- binding: binds
